Source: patent publication US20260166085A1
Where a chain is given by its changes, count along the chain named. Results are given in words; binding and its absence hold for the method and conditions named. Some results given as binding are weak or reduced against the parent protein; the word gives no strength.

Chains of the proteins cited; added tags and fusions are not shown. Lines headed by an entry give the natural chain unless they say otherwise; changes in a name come on top.
UniProt P10721: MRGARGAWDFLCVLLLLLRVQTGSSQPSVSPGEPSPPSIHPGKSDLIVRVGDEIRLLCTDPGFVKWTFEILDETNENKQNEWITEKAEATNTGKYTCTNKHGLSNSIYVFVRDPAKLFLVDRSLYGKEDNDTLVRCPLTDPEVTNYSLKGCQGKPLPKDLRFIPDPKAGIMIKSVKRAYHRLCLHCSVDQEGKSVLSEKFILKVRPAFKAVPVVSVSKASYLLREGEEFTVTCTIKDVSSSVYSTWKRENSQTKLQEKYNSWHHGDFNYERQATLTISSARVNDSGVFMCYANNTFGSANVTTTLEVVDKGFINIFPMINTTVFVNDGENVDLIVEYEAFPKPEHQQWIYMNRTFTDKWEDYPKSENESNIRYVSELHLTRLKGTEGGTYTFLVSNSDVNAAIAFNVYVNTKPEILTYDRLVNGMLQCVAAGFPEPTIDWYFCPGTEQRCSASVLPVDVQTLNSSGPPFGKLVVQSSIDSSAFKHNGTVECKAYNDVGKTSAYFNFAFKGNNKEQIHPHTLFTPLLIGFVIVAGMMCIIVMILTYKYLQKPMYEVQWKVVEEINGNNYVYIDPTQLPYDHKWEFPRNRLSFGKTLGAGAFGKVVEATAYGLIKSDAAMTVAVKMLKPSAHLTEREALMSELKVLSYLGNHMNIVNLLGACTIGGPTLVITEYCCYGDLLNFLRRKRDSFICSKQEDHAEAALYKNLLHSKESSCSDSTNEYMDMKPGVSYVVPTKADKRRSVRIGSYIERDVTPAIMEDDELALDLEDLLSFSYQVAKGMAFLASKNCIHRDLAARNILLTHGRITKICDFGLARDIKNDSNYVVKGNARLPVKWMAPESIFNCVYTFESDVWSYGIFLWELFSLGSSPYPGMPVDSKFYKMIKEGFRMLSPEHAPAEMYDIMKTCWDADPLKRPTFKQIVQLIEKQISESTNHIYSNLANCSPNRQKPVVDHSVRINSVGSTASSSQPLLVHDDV

B1: ABTx052 variant VH_N104D (antibody, human IgG1, V domains shown)
VH: QVQLVQSGAAVKKPGESLKISCKGSGYRFTSYWIGWVRQMPGKGLEWMGIIYPGDSDTRYSPSFQGQVTISAGKSISTAYLQWSSLKASDTAMYYCARHGRGYDGYEGAFDIWGQGTMVTVSS
VL: AIQLTQSPSSLSASVGDRVTITCRASQGISSALAWYQQKPGKAPKLLIYDASSLESGVPSRFSGSGSGTDFTLTISSLQPEDFATYYCQQFNSYPLTFGGGTKVEIKR
B2: ABTx052 variant VL_S93G (antibody, human IgG1, V domains shown)
VH: B1 VH with D104N
VL: AIQLTQSPSSLSASVGDRVTITCRASQGISSALAWYQQKPGKAPKLLIYDASSLESGVPSRFSGSGSGTDFTLTISSLQPEDFATYYCQQFNGYPLTFGGGTKVEIK
B3: ABTx052 variant VL_F91T (antibody, human IgG1, V domains shown)
VH: B1 VH with D104N
VL: B2 VL with F91T, G93S
B4: ABTx052 variant VH_G105A (antibody, human IgG1, V domains shown)
VH: B1 VH with D104N, G105A
VL: B1 VL
B5: ABTx052 variant VL_N92R (antibody, human IgG1, V domains shown)
VH: B1 VH with D104N
VL: B2 VL with N92R, G93S
B6: ABTx052 variant VL_N92Y (antibody, human IgG1, V domains shown)
VH: B1 VH with D104N
VL: B2 VL with N92Y, G93S
B7: ABTx052 variant VL_Y94S (antibody, human IgG1, V domains shown)
VH: B1 VH with D104N
VL: B2 VL with G93S, Y94S
B8: ABTx052 variant VL_Y94H (antibody, human IgG1, V domains shown)
VH: B1 VH with D104N
VL: B2 VL with G93S, Y94H
B9: ABTx052 variant VH_R59K (antibody, human IgG1, V domains shown)
VH: B1 VH with R59K, D104N
VL: B1 VL
B10: ABTx253 (antibody, human IgG1, kappa, V domains shown)
VH: B1 VH
VL: B1 VL with N92S
B11: ABTx273 (antibody, human IgG1, kappa, V domains shown)
VH: B1 VH
VL: B1 VL with N92R
B12: ABTx270 (antibody, human IgG1, kappa, V domains shown)
VH: B1 VH with G105A
VL: B1 VL with F91V, N92R
B13: ABTx251 (antibody, human IgG1, kappa, V domains shown)
VH: B1 VH
VL: B1 VL with N92Y
B14: ABTx256 (antibody, human IgG1, kappa, V domains shown)
VH: B1 VH with G105A
VL: B1 VL with F91T, N92Y
B15: ABTx274 (antibody, human IgG1, kappa, V domains shown)
VH: B1 VH with R59K
VL: B1 VL with F91T
B16: ABTx250 (antibody, human IgG1, kappa, V domains shown)
VH: B1 VH with R59K
VL: B1 VL
B17: ABTx272 (antibody, human IgG1, kappa, V domains shown)
VH: B1 VH with R59K, E107D
VL: B1 VL with F91V, N92R
B18: ABTx268 (antibody, human IgG1, kappa, V domains shown)
VH: B1 VH with R59K
VL: B1 VL with F91V
B19: ABTx265 (antibody, human IgG1, kappa, V domains shown)
VH: B1 VH with R59K, E107D
VL: B1 VL with F91T, N92R
B20: ABTx052-Fab (Fab, V domains shown)
VH: B1 VH with D104N
VL: B1 VL
B21: ABTx252 (antibody, human IgG1, kappa, V domains shown)
VH: B1 VH
VL: B1 VL with Y94H
B22: ABTx255 (antibody, human IgG1, kappa, V domains shown)
VH: B1 VH with R59K
VL: B1 VL with F91V, N92R
B23: ABTx257 (antibody, human IgG1, kappa, V domains shown)
VH: B1 VH with R59K, G105A, E107D
VL: B1 VL with F91T
B24: ABTx249 (antibody, human IgG1, kappa, V domains shown)
VH: B1 VH
VL: B1 VL with F91L, S93G
B25: ABTx269 (antibody, human IgG1, kappa, V domains shown)
VH: B1 VH with R59K
VL: B1 VL with F91V, N92Y
B26: ABTx261 (antibody, human IgG1, kappa, V domains shown)
VH: B1 VH with R59K, G105A
VL: B1 VL with F91T, N92R
B27: ABTx262 (antibody, human IgG1, kappa, V domains shown)
VH: B1 VH with G105A
VL: B1 VL with N92R, Y94S
B28: ABTx263 (antibody, human IgG1, kappa, V domains shown)
VH: B1 VH with R59K, E107D
VL: B1 VL with F91V, N92Y
B29: ABTx258 (antibody, human IgG1, kappa, V domains shown)
VH: B1 VH with R59K, G105A
VL: B1 VL with F91V, N92R
B30: ABTx267 (antibody, human IgG1, kappa, V domains shown)
VH: B1 VH with R59K, G105A, E107D
VL: B1 VL with F91T, Y94S
B31: ABTx308 (antibody, human IgG1, kappa, L234A L235A, V domains shown)
VH: B1 VH with R59K, G105A, E107D
VL: B1 VL with N92S

These binders were tested against CC128 variant of CD117 (Y259C + N260D) purified protein (human) (UniProt P10721) (assay: binding kinetics, FIGS. 45A-45K).

binding, binds:
B1, B2, B3, B4

The binders below were run against CC200 variant of CD117 (S261G) purified protein (human) (UniProt P10721) (assay: binding kinetics, FIGS. 45A-45K).

binding, binds:
B1, B2, B3, B4

The binders below were run against Wild type CD117 purified protein (human) (UniProt P10721) (assay: binding kinetics, FIGS. 45A-45K).

binding, binds:
B1, B5, B2, B6, B7, B8, B3, B4, B9

These binders were tested against Wild type CD117 purified protein (human) (UniProt P10721) (assay: binding kinetics (FIGS. 57A-57L)).

binding, binds:
B10, B11, B12, B13, B14, B15, B16, B17, B18, B19

What follows are binders tested against Wild type CD117 purified protein (human) (UniProt P10721) (assay: cryo-EM, ~3.0 Å).

binding, binds:
B20

These binders were tested against CC128 variant of CD117 (Y259C + N260D) purified protein (human) (UniProt P10721) (assay: binding kinetics grade, FIGS. 55A-55C).

binding, binds:
B21, B10, B22, B23, B15, B24, B16

Each binder was assayed against CC200 variant of CD117 (S261G) purified protein (human) (UniProt P10721) (assay: binding kinetics grade, FIGS. 55A-55C).

binding, binds:
B21, B10, B22, B23, B15, B24, B16

Each binder was assayed against Wild type CD117 purified protein (human) (UniProt P10721) (assay: binding kinetics grade, FIGS. 55A-55C).

binding, binds:
B10, B11, B25, B12, B26, B13, B27, B28, B22, B14, B29, B23, B15, B30, B24, B16, B17, B18, B19

Each binder was assayed against CC128 variant of CD117 (Y259C + N260D) purified protein (human) (UniProt P10721) (assay: BLI, CC128 variant on SA biosensor, 100 nM antibody (FIG. 85)).

binding, binds:
B31
